Measurements reported in the supplement of paper PMC5407854, “Inhibitor of ppGalNAc-T3-mediated O-glycosylation blocks cancer cell invasiveness and lowers FGF23 levels” (eLife, 2017).
The list shows a part of the results. Most entries show no effect beyond the scatter of the controls.

What follows are compounds tested on ppGalNAc-T3 sensor (assay: T3 sensor activation Q score (MG/GFP ratio z-score vs DMSO controls) (SD units); higher = more sensor activation (inhibition of ppGalNAc-T3 glycosylation)). Settings: HEK293 sensor cells; 10 µM; 6 h.
Description: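 Cells were treated with compound at 10 uM for 6 h, then MG/GFP ratio was read by flow cytometry (10,000 cells per well, duplicate wells). Q = (R - R_neg)/SD_neg relative to DMSO vehicle controls; the signal rises when the glycosyltransferase is inhibited.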

Compound | T3 sensor activation Q score
Cc1cccc(N2C(=O)CC(N3CCN(c4ccc(Cl)cc4)CC3)C2=O)c1 (configuration not stated) | -0.29
Clc1ccccc1CN1CCOCC1 | 0.25
O=C(c1ccc(Cl)cc1Cl)N1CCCc2ccccc21 | 0.685
COc1nc(Nc2ccc(C)cc2)nc(OC)n1 | -0.15
O=C(O)CN1C(=O)c2ccc(Br)cc2C1=O | 0.11
CCN1CCN(C(=O)CCCOc2ccc(Cl)cc2Cl)CC1 | 1.13
CCOC(=O)N1CCN(Cc2cc(C)ccc2C)CC1 | 0.035
O=C1Cc2ccccc2C(c2ccccc2Cl)N1 (configuration not stated) | 0.185
NNC(=O)CCc1ccccc1O | -0.465
O=C1CC(N2CCN(c3ccc(F)cc3)CC2)C(=O)N1c1cccc(Cl)c1 (configuration not stated) | 0.15
Cc1ccc2nc(-c3ccc(Cl)cc3)cn2c1 | 0.005
CCc1ccc(CN2CCN(c3ccccn3)CC2)cc1 | -1.07
CN1CCC(NCc2ccccc2F)CC1 | 0.6
CCCCOc1ccc(CN2CCN(c3ccccc3F)CC2)cc1 | 0.04
COc1ccc(OC)c(Nc2cc(-c3ccccc3)nc(N)n2)c1 | 2.71
CCN(CC)CC1CCc2c(c3ccccc3n2C)C1=O (configuration not stated) | 1.55
Cc1ccc(OCC(O)CN(C)C2CCCCC2)cc1C (configuration not stated) | 0.565
NS(=O)(=O)c1ccc(NC(=O)c2ccc(-c3ccccc3)cc2)cc1 | -0.565
CC(C)c1ccc(S(=O)(=O)NC(C)(C)C)cc1 | 0.615
COc1cc(CN2CCN(C/C=C/c3ccccc3)CC2)cc(OC)c1O | -0.3
Cc1ccccc1NS(=O)(=O)c1ccc(Cl)cc1 | 0.315
Cc1ccc(OCC(O)CN2CCN(c3ccccc3)CC2)c(C)c1 (configuration not stated) | -0.45
